Reference: publication PMC6838151 (Scientific Reports, 2019)

Tested on: hASCs
Assay: Confocal imaging of mitochondrial network (MitoRed) and F-actin (Phalloidin Atto 590) in hASCs
Format: cell-based, human
Conditions: 20 µM, 24 h
Protocol: The mitochondrial network was visualized using MitoRed staining. After 24-hours treatment with either Ke, KeP or KeOP, the media were removed and replaced with MitoRed dye in 1:1000 dilution in fresh complete media. Cells were incubated for 30 minutes at 37 °C, then washed with Phosphate Buffered Saline (PBS), fixed with 4% paraformaldehyde (PFA) solution, washed three times and nuclei were counterstained with diamidino-2-phenylindole (DAPI).
In order to perform F-actin imaging, cells were fixed with 4% PFA solution, washed with PBS and then permeabilized using 0.5% TX-100 (incubation 15 minutes, room temperature). The cells were rinsed and incubated with Phalloidin-Atto 590 solution in PBS (dilution 1:1000) at 37 °C for 30 minutes in the dark. After washing, the cells were counterstained with DAPI.
Cells were observed and images were taken using confocal microscopy performed with a Leica TCS-SP8 laser scanning confocal microscope. Data were further processed with the use of ImageJ software.

Structure (SMILES)	growth pattern (phalloidin staining)
Clc1ccc([C@@]2(Cn3ccnc3)OC[C@H](COc3ccc(N4CCN(CP(c5ccccc5)c5ccccc5)CC4)cc3)O2)c(Cl)c1 (racemic) [KeP, Ph2PCH2-Ke]	loose growth pattern
CC(=O)N1CCN(c2ccc(OCC3COC(Cn4ccnc4)(c4ccc(Cl)cc4Cl)O3)cc2)CC1 (centres unmarked) [Ke, ketoconazole, reference compound]	multilayer growth pattern
